Results are given in words; binding and its absence hold for the method and conditions named. Binding seen in cells or lysates may run through a third protein.
Target: GST alone
Assay: pull-down; GST or GST-HDA19 incubated with [35S]Met-labelled translation mixture in bead-binding buffer (50 mM K-phosphate pH 7.6, 450 mM KCl, 10 mM MgCl2, 10% glycerol, 1% Triton X-100, 1% BSA) 1 h at room temperature, then glutathione-Sepharose beads 1 h at 4 °C; SDS-PAGE and fluorography; only the target purified

binding: no binding
B1: [35S]methionine-labelled full-length SCL15 protein (protein, UniProt O23210 1-486)
chain: MKIPASSPQDTTNNNNNTNSTDSNHLSMDEHVMRSMDWDSIMKELELDDDSAPNSLKTGFTTTTTDSTILPLYAVDSNLPGFPDQIQPSDFESSSDVYPGQNQTTGYGFNSLDSVDNGGFDFIEDLIRVVDCVESDELQLAQVVLSRLNQRLRSPAGRPLQRAAFYFKEALGSFLTGSNRNPIRLSSWSEIVQRIRAIKEYSGISPIPLFSHFTANQAILDSLSSQSSSPFVHVVDFEIGFGGQYASLMREITEKSVSGGFLRVTAVVAEECAVETRLVKENLTQFAAEMKIRFQIEFVLMKTFEMLSFKAIRFVEGERTVVLISPAIFRRLSGITDFVNNLRRVSPKVVVFVDSEGWTEIAGSGSFRREFVSALEFYTMVLESLDAAAPPGDLVKKIVEAFVLRPKISAAVETAADRRHTGEMTWREAFCAAGMRPIQLSQFADFQAECLLEKAQVRGFHVAKRQGELVLCWHGRALVATSAWRF
modifications: [35S]methionine-labelled

From article PMC4507008
